Record: PubChem BioAssay AID743121 (NCATS, 2013)
Here is one part, drawn at random, of about 26,000 deposited reagents. Over the whole deposit, 167 (0.63%) were called active. 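Calls are per gene from RSA p-values that are not deposited; an individual active-marked siRNA can sensitise only weakly.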 Entries without a mark were called inactive. The numbers tell different reagents against one gene apart.

Screen: 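Genes whose silencing strengthens cell killing by camptothecin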 (primary screen)
System: MDA-MB-231 cells, a human breast cancer line
Knock-down reagent: single siRNA against human genes, 20 nM siRNA (0.8 pmol per well)
Duration: 120 h (drug added 48 h after transfection, read 72 h later)
Conditions: camptothecin 20 nM (about EC30) for 72 h; vehicle 0.1% DMSO in parallel plates
Detection: 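Cell viability by ATP luminescence (CellTiter-Glo) as % of non-targeting siRNA wells, and the log2 ratio of viability without drug over viability with camptothecin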
Direction: log2 vehicle/camptothecin viability: higher = stronger sensitisation to camptothecin; viability with camptothecin and viability without drug: higher = more viable cells
Call rule: 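Active genes have an RSA gene-level p-value below 0.001, computed from the ratios of their separate siRNAs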

The opening 2 records, ahead of the listing:
gene knocked down | reagent no. | log2 vehicle/camptothecin viability | viability with camptothecin (% of control) | viability without drug (% of control)
OR1E1 | 1 | -0.536 | 78.4 | 54.1
OR1E1 | 2 | -0.288 | 79 | 64.7

The list itself, repeating the preview:
gene knocked down | reagent no. | log2 vehicle/camptothecin viability | viability with camptothecin (% of control) | viability without drug (% of control)
OR1E1 | 1 | -0.536 | 78.4 | 54.1
OR1E1 | 2 | -0.288 | 79 | 64.7
OR1E1 | 3 | -0.325 | 74.5 | 59.5
OR1E1 | 4 | -0.22 | 90.1 | 77.4
OR1E1 | 5 | -0.26 | 102 | 85
OR1E1 | 6 | -0.404 | 78.8 | 59.6
OR1E1 | 7 | -0.402 | 105 | 79.2
OR1E1 | 8 | -0.00409 | 104 | 104
ADRB2 | 1 | 0.0305 | 74.2 | 75.8
ADRB2 | 2 | 0.0505 | 93.5 | 96.8
ADRB2 | 3 | -0.101 | 99.9 | 93.2
ADRB2 | 4 | -0.525 | 56.3 | 39.1
MTMR6 | 1 | 0.139 | 67.3 | 74.1
MTMR6 | 2 | -0.243 | 117 | 98.8
MTMR6 | 3 | 0.229 | 77.8 | 91.2
MTMR6 | 4 | 0.0333 | 93.9 | 96.1
MMP16 | 1 | 0.0914 | 110 | 117
MMP16 | 2 | -0.331 | 67.9 | 54
MMP16 | 3 | -0.05 | 95.3 | 92
MMP16 | 4 | -0.142 | 116 | 105
HSP90AB1 | 1 | 1.79 | 16.6 | 57.3
HSP90AB1 | 2 | 0.253 | 37.6 | 44.8
HSP90AB1 | 3 | -0.21 | 83.4 | 72.1
HSP90AB1 | 4 | 0.0713 | 98.8 | 104
MPZ | 1 | -0.0347 | 59.6 | 58.1
MPZ | 2 | -0.0991 | 89.7 | 83.7
MPZ | 3 | -0.0669 | 101 | 96.6
MPZ | 4 | 0.169 | 67.1 | 75.5
HDAC2 | 1 | -0.0551 | 62 | 59.6
HDAC2 | 2 | -0.0254 | 97.8 | 96.1
HDAC2 | 3 | 0.0704 | 101 | 106
HDAC2 | 4 | -0.539 | 81.3 | 56
TOLLIP | 1 | 0.00902 | 73.1 | 73.5
TOLLIP | 2 | -0.0505 | 62.1 | 60
TOLLIP | 3 | 0.319 | 90 | 112
TOLLIP | 4 | -0.145 | 82 | 74.2
CLK4 | 1 | 0.0272 | 110 | 112
CLK4 | 2 | 0.444 | 36.7 | 49.9
CLK4 | 3 | -0.223 | 92.2 | 79
CLK4 | 4 | -0.532 | 33.9 | 23.4
SAP18 | 1 | -0.421 | 34.3 | 25.6
SAP18 | 2 | -0.146 | 95.6 | 86.3
SAP18 | 3 | 0.18 | 22.6 | 25.6
NR4A2 | 1 | 0.408 | 21.2 | 28.1
NR4A2 | 2 | -0.51 | 50.8 | 35.7
NR4A2 | 3 | -0.304 | 60.2 | 48.8
NR4A2 | 4 | 0.543 | 61.3 | 89.4
